Values from PubChem BioAssay AID1671195 (Yale University, 2021).
In all, the deposit lists about 22,000 reagents; below is an unselected part. About 1,510 of them (6.9%) count as active. 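Active includes knockdowns raising or lowering LDL uptake; positive z-scores mean more uptake, negative mean less.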

Screen: 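Regulators of LDL receptor activity judged by labelled LDL uptake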 (primary screen)
Cell system: human Huh7 hepatoma cells
Reagent: siRNA pool against human genes, 18 nM
Timing: about 2 to 2.5 days of knockdown, then 8 h LDL uptake
Conditions: DiI-labelled LDL at 30 µg/ml for 8 h, in lipoprotein-deficient serum medium
Detection: 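Fluorescent LDL signal imaged in cells, scaled to the plate median, robust z-score for each replicate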
Reading the numbers: robust z-score: higher = more LDL uptake after knockdown
Call rule: 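Active when two or more replicates show a robust z-score above 2 or below -2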

LOC83459 (retired record) | robust z-score, replicate 1 = 1.28; robust z-score, replicate 2 = 0.225; robust z-score, replicate 3 = 0.639; Outcome = inactive
CEP112 | robust z-score, replicate 1 = -0.161; robust z-score, replicate 2 = -0.0561; robust z-score, replicate 3 = -0.573; Outcome = inactive
BBX | robust z-score, replicate 1 = -0.809; robust z-score, replicate 2 = -0.88; robust z-score, replicate 3 = -0.894; Outcome = inactive
YRDC | robust z-score, replicate 1 = 1.43; robust z-score, replicate 2 = 2.74; robust z-score, replicate 3 = 2.55; Outcome = active
MON1A | robust z-score, replicate 1 = -0.272; robust z-score, replicate 2 = -0.0934; robust z-score, replicate 3 = -0.344; Outcome = inactive
LOC284527 (retired record) | robust z-score, replicate 1 = -1.16; robust z-score, replicate 2 = -1.24; robust z-score, replicate 3 = -0.999; Outcome = inactive
UPB1 | robust z-score, replicate 1 = 2.58; robust z-score, replicate 2 = 4.64; robust z-score, replicate 3 = 4.44; Outcome = active
CLHC1 | robust z-score, replicate 1 = -1.21; robust z-score, replicate 2 = -1.21; robust z-score, replicate 3 = -0.186; Outcome = inactive
PPP2R2C | robust z-score, replicate 1 = 0.0261; robust z-score, replicate 2 = -0.611; robust z-score, replicate 3 = -0.0766; Outcome = inactive
CD72 | robust z-score, replicate 1 = -0.253; robust z-score, replicate 2 = 0.307; robust z-score, replicate 3 = 1.28; Outcome = inactive
OR10A7 | robust z-score, replicate 1 = -0.516; robust z-score, replicate 2 = -0.844; robust z-score, replicate 3 = -1.52; Outcome = inactive
SH3RF3 | robust z-score, replicate 1 = 0.153; robust z-score, replicate 2 = 0.306; robust z-score, replicate 3 = 0.588; Outcome = inactive
SOAT1 | robust z-score, replicate 1 = -0.0356; robust z-score, replicate 2 = 0.603; robust z-score, replicate 3 = 0.777; Outcome = inactive
BHLHE41 | robust z-score, replicate 1 = -0.299; robust z-score, replicate 2 = 0.171; robust z-score, replicate 3 = 1.19; Outcome = inactive
LOC440919 (retired record) | robust z-score, replicate 1 = 2.57; robust z-score, replicate 2 = 2.69; robust z-score, replicate 3 = 2.74; Outcome = active

Single entries from the list.
Result for BHLHE41 in “robust z-score, replicate 3”: 1.19
PPP2R2C, robust z-score, replicate 1 = 0.0261
Value for BBX under “robust z-score, replicate 1”: -0.809
LOC284527 (retired record), robust z-score, replicate 3 → -0.999

The list goes on.
NR1H2 | robust z-score, replicate 1 = -0.71; robust z-score, replicate 2 = 0.552; robust z-score, replicate 3 = -0.245; Outcome = inactive
OR52A1 | robust z-score, replicate 1 = 4.5; robust z-score, replicate 2 = 2.82; robust z-score, replicate 3 = 4.72; Outcome = active
MIR663AHG | robust z-score, replicate 1 = 0.393; robust z-score, replicate 2 = 0.297; robust z-score, replicate 3 = 0.966; Outcome = inactive
DCAF1 | robust z-score, replicate 1 = -0.0993; robust z-score, replicate 2 = 0.483; robust z-score, replicate 3 = -0.31; Outcome = inactive
LOC283117 (retired record) | robust z-score, replicate 1 = 1.73; robust z-score, replicate 2 = 1.48; robust z-score, replicate 3 = 1.89; Outcome = inactive
CFB | robust z-score, replicate 1 = -0.621; robust z-score, replicate 2 = 0.0671; robust z-score, replicate 3 = 0.0439; Outcome = inactive
EGFL6 | robust z-score, replicate 1 = 0.238; robust z-score, replicate 2 = -1.87; robust z-score, replicate 3 = 1.3; Outcome = inactive
LYPD2 | robust z-score, replicate 1 = -1.1; robust z-score, replicate 2 = -0.212; robust z-score, replicate 3 = -0.725; Outcome = inactive
MRPS27 | robust z-score, replicate 1 = -1.41; robust z-score, replicate 2 = -1.18; robust z-score, replicate 3 = -0.937; Outcome = inactive
